SMILES strings stand for the structures. Where two headings read alike, the source gives them in different places. Where only a bound is given, the exact number is not on record here.

For the test, the system named is CD19 CAR T cells. The test is described as follows: CAR T cell cytokine production (Luminex) under CD19 K562, KIP-1 or CD2/3/28 stimulation. The conditions noted are these: Homo sapiens, 72 h.

As for `C[C@@H]1CCN(C(=O)CC#N)C[C@@H]1N(C)c1ncnc2[nH]ccc12` [tofacitinib], the IC50 is, setting by setting: (read-out: Suppression of cytokine production, GMCSF (IC50), CD3/CD28 stimulation, 72 h) below 100 nM; (read-out: Suppression of cytokine production, GMCSF (IC50), K562-CD19 stimulation, 72 h) 2930 nM; (read-out: Suppression of cytokine production, GMCSF (IC50), KIP-1 stimulation, 72 h) 1160 nM; (read-out: Suppression of cytokine production, GzB (IC50), CD3/CD28 stimulation, 72 h) 1700 nM; (read-out: Suppression of cytokine production, IL-2Ra (IC50), CD3/CD28 stimulation, 72 h) 222 nM; (read-out: Suppression of cytokine production, IL-2Ra (IC50), K562-CD19 stimulation, 72 h) 155 nM. Moreover, the IC50 is below 100 nM (read-out: Suppression of cytokine production, IL-6 (IC50), CD3/CD28 stimulation, 72 h); 2250 nM (read-out: Suppression of cytokine production, IL-6 (IC50), KIP-1 stimulation, 72 h); below 100 nM (read-out: Suppression of cytokine production, IL-8 (IC50), CD3/CD28 stimulation, 72 h); 105 nM (read-out: Suppression of cytokine production, IL-8 (IC50), K562-CD19 stimulation, 72 h); 354 nM (read-out: Suppression of cytokine production, IL-8 (IC50), KIP-1 stimulation, 72 h); below 100 nM (read-out: Suppression of cytokine production, IL-10 (IC50), CD3/CD28 stimulation, 72 h). Moreover, the IC50 was 221 nM (read-out: Suppression of cytokine production, IL-10 (IC50), K562-CD19 stimulation, 72 h); below 100 nM (read-out: Suppression of cytokine production, MCP-1 (IC50), CD3/CD28 stimulation, 72 h); 2560 nM (read-out: Suppression of cytokine production, MCP-1 (IC50), KIP-1 stimulation, 72 h); 307 nM (read-out: Suppression of cytokine production, MIG (IC50), CD3/CD28 stimulation, 72 h); below 100 nM (read-out: Suppression of cytokine production, MIG (IC50), K562-CD19 stimulation, 72 h); below 100 nM (read-out: Suppression of cytokine production, MIG (IC50), KIP-1 stimulation, 72 h). The IC50 is, setting by setting: (read-out: Suppression of cytokine production, MIP-1b (IC50), CD3/CD28 stimulation, 72 h) 101 nM; (read-out: Suppression of cytokine production, Perforin (IC50), K562-CD19 stimulation, 72 h) 460 nM; (read-out: Suppression of cytokine production, Perforin (IC50), KIP-1 stimulation, 72 h) 1090 nM; (read-out: Suppression of cytokine production, TNFa (IC50), CD3/CD28 stimulation, 72 h) below 100 nM; (read-out: Suppression of cytokine production, TNFa (IC50), K562-CD19 stimulation, 72 h) 371 nM; (read-out: Suppression of cytokine production, TNFa (IC50), KIP-1 stimulation, 72 h) 652 nM.

The record behind these values is patent US12252701B2, “Chimeric antigen receptor T cell therapy” (KITE PHARMA, INC., priority 2020, dated 2025).
